These are yes or no findings as the source states them, for the method shown. Binding seen in cells or lysates may run through a third protein. A yes stands for co-enrichment or nearness to the bait. Other partners may have been found. Sequences can lack the tags named with a protein.
Target: T1, DAZ1-FLAG-3×HA (deleted in azoospermia 1), stably overexpressed in DAOY cells (human) (UniProt Q9NQZ3)
T1 sequence: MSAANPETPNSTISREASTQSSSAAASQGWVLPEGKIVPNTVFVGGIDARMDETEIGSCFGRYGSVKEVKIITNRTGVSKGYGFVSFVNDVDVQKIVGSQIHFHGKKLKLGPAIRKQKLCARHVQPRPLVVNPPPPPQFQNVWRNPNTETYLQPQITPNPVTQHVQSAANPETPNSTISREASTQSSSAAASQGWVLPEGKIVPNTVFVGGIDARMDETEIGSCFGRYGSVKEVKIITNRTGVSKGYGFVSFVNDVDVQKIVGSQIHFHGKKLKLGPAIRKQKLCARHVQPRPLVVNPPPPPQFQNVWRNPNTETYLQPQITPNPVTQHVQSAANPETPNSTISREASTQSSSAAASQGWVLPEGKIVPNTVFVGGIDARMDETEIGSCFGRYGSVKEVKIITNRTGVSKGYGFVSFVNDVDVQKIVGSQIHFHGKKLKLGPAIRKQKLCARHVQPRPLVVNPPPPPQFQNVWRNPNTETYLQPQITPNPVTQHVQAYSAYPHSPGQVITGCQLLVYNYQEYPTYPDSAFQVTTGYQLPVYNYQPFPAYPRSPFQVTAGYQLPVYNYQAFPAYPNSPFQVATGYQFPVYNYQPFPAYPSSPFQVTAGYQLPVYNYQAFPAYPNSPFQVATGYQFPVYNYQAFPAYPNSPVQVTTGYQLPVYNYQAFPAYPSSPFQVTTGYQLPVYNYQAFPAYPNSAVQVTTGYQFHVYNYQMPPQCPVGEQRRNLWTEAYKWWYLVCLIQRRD
Experiment: affinity purification with mass spectrometry; FLAG beads, lysate of the DAOY cell line stably overexpressing DAZ-FLAG; complexes separated by SDS-PAGE, silver stain, mass spectrometry

Amino acid sequences for entries named in this document (tags omitted).
UniProt P11940: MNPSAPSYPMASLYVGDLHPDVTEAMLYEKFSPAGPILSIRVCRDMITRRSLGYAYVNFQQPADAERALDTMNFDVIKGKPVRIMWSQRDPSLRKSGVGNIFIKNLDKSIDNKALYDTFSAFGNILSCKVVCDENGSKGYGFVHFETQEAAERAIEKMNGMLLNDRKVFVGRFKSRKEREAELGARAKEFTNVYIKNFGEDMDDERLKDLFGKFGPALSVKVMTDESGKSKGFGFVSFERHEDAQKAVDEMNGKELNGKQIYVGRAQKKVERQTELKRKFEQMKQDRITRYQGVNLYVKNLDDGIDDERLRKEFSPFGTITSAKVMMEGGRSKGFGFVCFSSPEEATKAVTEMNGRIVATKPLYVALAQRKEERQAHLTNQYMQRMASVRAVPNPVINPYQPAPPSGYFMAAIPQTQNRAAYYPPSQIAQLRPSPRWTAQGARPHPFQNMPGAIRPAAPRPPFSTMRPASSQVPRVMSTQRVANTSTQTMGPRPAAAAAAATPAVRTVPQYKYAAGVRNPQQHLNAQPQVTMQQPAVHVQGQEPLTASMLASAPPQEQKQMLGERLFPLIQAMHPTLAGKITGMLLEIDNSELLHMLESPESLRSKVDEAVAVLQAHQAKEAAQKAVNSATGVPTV

PABPC1 (Poly A Binding Protein Cytoplasmic 1), in DAOY cells (from UniProt P11940 1-636)
binding: binds

— PMC11304246
